The record followed here is publication doi:10.1101/2023.08.18.553817.

Amino acid sequences for entries named in this document (tags omitted). A change or cut given only in a name is not applied to a line headed by its entry. Chains listed by the source or under a name are the forms on record and can include a tag or linker. Residues count along the entry.
FLAG-TAX1BP1^CC1 (WT) (Q86VP1, residues 147-343): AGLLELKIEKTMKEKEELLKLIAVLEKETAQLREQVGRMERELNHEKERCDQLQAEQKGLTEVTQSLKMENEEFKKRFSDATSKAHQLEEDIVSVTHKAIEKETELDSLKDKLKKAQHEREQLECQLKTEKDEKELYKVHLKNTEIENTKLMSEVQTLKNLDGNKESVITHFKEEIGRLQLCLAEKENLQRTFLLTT
FLAG-TAX1BP1^CC1 (K248E) (Q86VP1, form named): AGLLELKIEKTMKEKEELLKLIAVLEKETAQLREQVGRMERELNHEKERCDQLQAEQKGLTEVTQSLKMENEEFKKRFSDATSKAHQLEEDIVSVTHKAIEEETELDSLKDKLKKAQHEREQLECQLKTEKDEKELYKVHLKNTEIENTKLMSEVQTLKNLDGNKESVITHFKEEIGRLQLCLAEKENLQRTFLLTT

Assay [1] has as its target FLAG-TAX1BP1^CC1 (K248E) (human) (UniProt Q86VP1). Briefly: affinity purification with mass spectrometry.
In assay [2] the target is FLAG-TAX1BP1^CC1 (WT) (human) (UniProt Q86VP1). Put plainly: affinity purification with mass spectrometry.

These are yes or no findings as the source states them, for the method shown. In cells and extracts the contact can be indirect. These calls come from enrichment with a bait or labelling near it, and not all partners need be listed. A no says only that the protein was not detected with the bait.

B1: ATG9B (protein, UniProt Q674R7 1-924)
chain: MVSRMGWGGRRRRLGRWGDLGPGSVPLLPMPLPPPPPPSCRGPGGGRISIFSLSPAPHTRSSPSSFSPPTAGPPCSVLQGTGASQSCHSALPIPATPPTQAQPAMTPASASPSWGSHSTPPLAPATPTPSQQCPQDSPGLRVGPLIPEQDYERLEDCDPEGSQDSPIHGEEQQPLLHVPEGLRGSWHHIQNLDSFFTKIYSYHQRNGFACILLEDVFQLGQFIFIVTFTTFLLRCVDYNVLFANQPSNHTRPGPFHSKVTLSDAILPSAQCAERIRSSPLLVLLLVLAAGFWLVQLLRSVCNLFSYWDIQVFYREALHIPPEELSSVPWAEVQSRLLALQRSGGLCVQPRPLTELDIHHRILRYTNYQVALANKGLLPARCPLPWGGSAAFLSRGLALNVDLLLFRGPFSLFRGGWELPHAYKRSDQRGALAARWGRTVLLLAALNLALSPLVLAWQVLHVFYSHVELLRREPGALGARGWSRLARLQLRHFNELPHELRARLARAYRPAAAFLRTAAPPAPLRTLLARQLVFFAGALFAALLVLTVYDEDVLAVEHVLTAMTALGVTATVARSFIPEEQCQGRAPQLLLQTALAHMHYLPEEPGPGGRDRAYRQMAQLLQYRAVSLLEELLSPLLTPLFLLFWFRPRALEIIDFFHHFTVDVAGVGDICSFALMDVKRHGHPQWLSAGQTEASLSQRAEDGKTELSLMRFSLAHPLWRPPGHSSKFLGHLWGRVQQDAAAWGATSARGPSTPGVLSNCTSPLPEAFLANLFVHPLLPPRDLSPTAPCPAAATASLLASISRIAQDPSSVSPGGTGGQKLAQLPELASAEMSLHVIYLHQLHQQQQQQEPWGEAAASILSRPCSSPSQPPSPDEEKPSWSSDGSSPASSPRQQWGTQKARNLFPGGFQVTTDTQKEPDRASCTD
As to B1, the binding result in assay [1] and in assay [2] was “no binding” in each case.

B2: ATG9A (protein, UniProt Q7Z3C6 1-839)
chain: MAQFDTEYQRLEASYSDSPPGEEDLLVHVAEGSKSPWHHIENLDLFFSRVYNLHQKNGFTCMLIGEIFELMQFLFVVAFTTFLVSCVDYDILFANKMVNHSLHPTEPVKVTLPDAFLPAQVCSARIQENGSLITILVIAGVFWIHRLIKFIYNICCYWEIHSFYLHALRIPMSALPYCTWQEVQARIVQTQKEHQICIHKRELTELDIYHRILRFQNYMVALVNKSLLPLRFRLPGLGEAVFFTRGLKYNFELILFWGPGSLFLNEWSLKAEYKRGGQRLELAQRLSNRILWIGIANFLLCPLILIWQILYAFFSYAEVLKREPGALGARCWSLYGRCYLRHFNELEHELQSRLNRGYKPASKYMNCFLSPLLTLLAKNGAFFAGSILAVLIALTIYDEDVLAVEHVLTTVTLLGVTVTVCRSFIPDQHMVFCPEQLLRVILAHIHYMPDHWQGNAHRSQTRDEFAQLFQYKAVFILEELLSPIVTPLILIFCLRPRALEIIDFFRNFTVEVVGVGDTCSFAQMDVRQHGHPQWLSAGQTEASVYQQAEDGKTELSLMHFAITNPGWQPPRESTAFLGFLKEQVQRDGAAASLAQGGLLPENALFTSIQSLQSESEPLSLIANVVAGSSCRGPPLPRDLQGSRHRAEVASALRSFSPLQPGQAPTGRAHSTMTGSGVDARTASSGSSVWEGQLQSLVLSEYASTEMSLHALYMHQLHKQQAQAEPERHVWHRRESDESGESAPDEGGEGARAPQSIPRSASYPCAAPRPGAPETTALHGGFQRRYGGITDPGTVPRVPSHFSRLPLGGWAEDGQSASRHPEPVPEEGSEDELPPQVHKV
On to B2, for which the binding entry in assay [1] and in assay [2] was “no binding” each time.

B3: SCAMP3 (protein, UniProt O14828 1-347)
chain: MAQSRDGGNPFAEPSELDNPFQDPAVIQHRPSRQYATLDVYNPFETREPPPAYEPPAPAPLPPPSAPSLQPSRKLSPTEPKNYGSYSTQASAAAATAELLKKQEELNRKAEELDRRERELQHAALGGTATRQNNWPPLPSFCPVQPCFFQDISMEIPQEFQKTVSTMYYLWMCSTLALLLNFLACLASFCVETNNGAGFGLSILWVLLFTPCSFVCWYRPMYKAFRSDSSFNFFVFFFIFFVQDVLFVLQAIGIPGWGFSGWISALVVPKGNTAVSVLMLLVALLFTGIAVLGIVMLKRIHSLYRRTGASFQKAQQEFAAGVFSNPAVRTAAANAAAGAAENAFRAP
With B3, the binding entry in assay [1] and in assay [2] was “binds” throughout.
